These results are taken from PMC4166321.

Test [1] deals with T1, sensory histidine kinase DegS (Bacillus subtilis) (UniProt P13799).
T1 sequence: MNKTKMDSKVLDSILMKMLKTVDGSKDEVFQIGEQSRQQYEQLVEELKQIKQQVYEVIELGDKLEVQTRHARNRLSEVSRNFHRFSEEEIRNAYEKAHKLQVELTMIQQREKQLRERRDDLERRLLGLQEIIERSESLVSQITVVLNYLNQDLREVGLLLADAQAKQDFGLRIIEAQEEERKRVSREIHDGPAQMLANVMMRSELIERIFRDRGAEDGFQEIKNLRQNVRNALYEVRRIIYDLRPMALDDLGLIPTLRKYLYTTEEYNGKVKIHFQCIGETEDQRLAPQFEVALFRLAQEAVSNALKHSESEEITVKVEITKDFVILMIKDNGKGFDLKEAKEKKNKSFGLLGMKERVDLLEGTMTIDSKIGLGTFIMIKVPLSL
Briefly: two-hybrid; yeast two-hybrid, data not shown; which partner was bait is not told.

In test [2] the target is T2, two-component-like kinase RsbT (Bacillus subtilis) (UniProt P42411).
T2 sequence: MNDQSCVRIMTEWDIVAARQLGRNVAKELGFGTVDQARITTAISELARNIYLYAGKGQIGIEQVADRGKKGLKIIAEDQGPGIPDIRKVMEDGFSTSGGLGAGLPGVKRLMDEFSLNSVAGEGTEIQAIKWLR
Briefly: two-hybrid; yeast two-hybrid; bait as Gal4 BD fusion (pGBDU), prey as Gal4 AD fusion (pGAD); haploid cells of complementary mating types mixed in a 96 wells format; growth of diploids on selective media depleted for histidine.

Test [3] deals with T3, two-component response regulator YxdJ (Bacillus subtilis) (UniProt P42421).
T3 sequence: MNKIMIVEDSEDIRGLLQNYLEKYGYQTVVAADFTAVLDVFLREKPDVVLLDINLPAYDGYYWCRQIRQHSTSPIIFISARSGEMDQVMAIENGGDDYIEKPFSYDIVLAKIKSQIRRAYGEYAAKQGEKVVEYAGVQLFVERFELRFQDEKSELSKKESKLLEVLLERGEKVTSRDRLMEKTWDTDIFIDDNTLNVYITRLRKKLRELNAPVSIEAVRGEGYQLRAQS
Kind of test: two-hybrid; yeast two-hybrid, data not shown; which partner was bait is not told.

Results are given in words; binding and its absence hold for the method and conditions named. Some entries that bind do so weakly or less than the wild type. For some of these results: Where a sequence is shown, tags or fusion partners need not be part of it.

B1: Hanks-type kinase PrkD (enzyme, UniProt O31435 1-256)
chain: MALKLLKKLLFDRPLKNGVILNHQYKIEECLGMGGYGLVYLCTDILAQTPYVLKQLRPTKAKKEKEKVRFQQEIKLLKNIHHPQIPGFIDEFIIDGQAYYVMQFIEGENIEELLFFRKQPFTELMALQLISQLLEIIEYLHDRLIFHSDIRTPNIIINDGRLCLIDFGLAKQLTPEEMEEIKVRKQDDFFDLGETLLFLLYSQYKGKKKKNGTWLEELTLTKEVTLLLKRLLGIEEEYQHTASIREDLNRAIQSVT
B1: the binding result in test [1] and in test [2] was “binds” in each case.

B2: phosphotyrosine-protein phosphatase YwlE (enzyme, UniProt P39155 1-150)
chain: MDIIFVCTGNTCRSPMAEALFKSIAEREGLNVNVRSAGVFASPNGKATPHAVEALFEKHIALNHVSSPLTEELMESADLVLAMTHQHKQIIASQFGRYRDKVFTLKEYVTGSHGDVLDPFGGSIDIYKQTRDELEELLRQLAKQLKKDRR
For B2, in test [3], the binding result is reported as “binds”.

B3: Hanks-type serine/threonine kinase YabT (enzyme, UniProt P37562 1-338)
chain: MMNDALTSLACSLKPGTTIKGKWNGNTYTLRKQLGKGANGIVYLAETSDGHVALKVSDDSLSITSEVNVLKSFSKAQSVTMGPSFFDTDDAYIPSANTKVSFYAMEYIKGPLLLKYVSDKGAEWIPVLMIQLLSSLSVLHQQGWIFGDLKPDNLIVTGPPARIRCIDVGGTTKEGRAIKEYTEFYDRGYWGYGTRKAEPSYDLFAVAMIMINSVHKKEFKKTNQPKEQLRSLIEGNPLLQKYKKALFSALNGDYQSADEMKKDMLDAGQKAAQRKQPIKASPQPATRQRQQKPRQGKITKTRYTPKQKPAKSGGLFETTLIVISVLALYFAYIIFFLI
Take B3: the binding entry in test [1] was “binds”.
